Results taken from publication doi:10.1101/2020.07.11.196790.
Results are given in words; binding and its absence hold for the method and conditions named. Binding seen in cells or lysates may run through a third protein. A yes stands for co-enrichment or nearness to the bait. Other partners may have been found.

Amino acid sequences for entries named in this document (tags omitted).
UniProt Q86WV6: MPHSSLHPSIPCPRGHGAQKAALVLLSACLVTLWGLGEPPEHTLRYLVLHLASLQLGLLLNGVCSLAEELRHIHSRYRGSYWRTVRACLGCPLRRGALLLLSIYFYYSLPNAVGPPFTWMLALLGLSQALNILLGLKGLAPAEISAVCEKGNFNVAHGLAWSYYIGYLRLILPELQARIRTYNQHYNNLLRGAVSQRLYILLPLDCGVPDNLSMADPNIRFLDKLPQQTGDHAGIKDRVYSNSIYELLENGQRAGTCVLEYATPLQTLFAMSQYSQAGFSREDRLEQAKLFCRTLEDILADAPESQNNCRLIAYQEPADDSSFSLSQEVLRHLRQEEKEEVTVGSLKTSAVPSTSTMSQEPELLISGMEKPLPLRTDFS
UniProt Q9Y265: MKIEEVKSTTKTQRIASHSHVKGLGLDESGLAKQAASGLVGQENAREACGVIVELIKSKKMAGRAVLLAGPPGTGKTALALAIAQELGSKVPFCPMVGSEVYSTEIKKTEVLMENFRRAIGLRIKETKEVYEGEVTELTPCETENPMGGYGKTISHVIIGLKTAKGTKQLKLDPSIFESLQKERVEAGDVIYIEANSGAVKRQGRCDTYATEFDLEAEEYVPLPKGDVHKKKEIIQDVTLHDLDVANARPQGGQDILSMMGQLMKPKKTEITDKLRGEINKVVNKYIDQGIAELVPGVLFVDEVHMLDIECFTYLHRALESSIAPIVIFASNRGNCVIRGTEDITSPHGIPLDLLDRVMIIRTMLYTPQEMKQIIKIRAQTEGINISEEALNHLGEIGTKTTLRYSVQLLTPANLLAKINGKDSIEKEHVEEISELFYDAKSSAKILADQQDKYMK
UniProt P12956: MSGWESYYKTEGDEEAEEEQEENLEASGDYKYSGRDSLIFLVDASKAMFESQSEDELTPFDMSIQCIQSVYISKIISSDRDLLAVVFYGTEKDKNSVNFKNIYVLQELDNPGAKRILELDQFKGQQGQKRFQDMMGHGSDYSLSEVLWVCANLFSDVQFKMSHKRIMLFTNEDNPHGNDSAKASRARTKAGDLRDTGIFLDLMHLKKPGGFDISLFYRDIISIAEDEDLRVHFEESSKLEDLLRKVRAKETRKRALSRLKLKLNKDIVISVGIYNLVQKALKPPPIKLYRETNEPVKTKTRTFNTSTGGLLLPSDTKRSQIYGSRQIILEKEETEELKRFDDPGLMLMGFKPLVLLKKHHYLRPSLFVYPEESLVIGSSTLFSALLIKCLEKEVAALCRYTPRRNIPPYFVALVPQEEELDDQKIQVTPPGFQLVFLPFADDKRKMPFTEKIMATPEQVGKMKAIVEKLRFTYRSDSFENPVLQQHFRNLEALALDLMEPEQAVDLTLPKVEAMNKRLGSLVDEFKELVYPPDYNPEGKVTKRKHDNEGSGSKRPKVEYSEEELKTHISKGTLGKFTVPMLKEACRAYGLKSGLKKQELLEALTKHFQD
UniProt P78527: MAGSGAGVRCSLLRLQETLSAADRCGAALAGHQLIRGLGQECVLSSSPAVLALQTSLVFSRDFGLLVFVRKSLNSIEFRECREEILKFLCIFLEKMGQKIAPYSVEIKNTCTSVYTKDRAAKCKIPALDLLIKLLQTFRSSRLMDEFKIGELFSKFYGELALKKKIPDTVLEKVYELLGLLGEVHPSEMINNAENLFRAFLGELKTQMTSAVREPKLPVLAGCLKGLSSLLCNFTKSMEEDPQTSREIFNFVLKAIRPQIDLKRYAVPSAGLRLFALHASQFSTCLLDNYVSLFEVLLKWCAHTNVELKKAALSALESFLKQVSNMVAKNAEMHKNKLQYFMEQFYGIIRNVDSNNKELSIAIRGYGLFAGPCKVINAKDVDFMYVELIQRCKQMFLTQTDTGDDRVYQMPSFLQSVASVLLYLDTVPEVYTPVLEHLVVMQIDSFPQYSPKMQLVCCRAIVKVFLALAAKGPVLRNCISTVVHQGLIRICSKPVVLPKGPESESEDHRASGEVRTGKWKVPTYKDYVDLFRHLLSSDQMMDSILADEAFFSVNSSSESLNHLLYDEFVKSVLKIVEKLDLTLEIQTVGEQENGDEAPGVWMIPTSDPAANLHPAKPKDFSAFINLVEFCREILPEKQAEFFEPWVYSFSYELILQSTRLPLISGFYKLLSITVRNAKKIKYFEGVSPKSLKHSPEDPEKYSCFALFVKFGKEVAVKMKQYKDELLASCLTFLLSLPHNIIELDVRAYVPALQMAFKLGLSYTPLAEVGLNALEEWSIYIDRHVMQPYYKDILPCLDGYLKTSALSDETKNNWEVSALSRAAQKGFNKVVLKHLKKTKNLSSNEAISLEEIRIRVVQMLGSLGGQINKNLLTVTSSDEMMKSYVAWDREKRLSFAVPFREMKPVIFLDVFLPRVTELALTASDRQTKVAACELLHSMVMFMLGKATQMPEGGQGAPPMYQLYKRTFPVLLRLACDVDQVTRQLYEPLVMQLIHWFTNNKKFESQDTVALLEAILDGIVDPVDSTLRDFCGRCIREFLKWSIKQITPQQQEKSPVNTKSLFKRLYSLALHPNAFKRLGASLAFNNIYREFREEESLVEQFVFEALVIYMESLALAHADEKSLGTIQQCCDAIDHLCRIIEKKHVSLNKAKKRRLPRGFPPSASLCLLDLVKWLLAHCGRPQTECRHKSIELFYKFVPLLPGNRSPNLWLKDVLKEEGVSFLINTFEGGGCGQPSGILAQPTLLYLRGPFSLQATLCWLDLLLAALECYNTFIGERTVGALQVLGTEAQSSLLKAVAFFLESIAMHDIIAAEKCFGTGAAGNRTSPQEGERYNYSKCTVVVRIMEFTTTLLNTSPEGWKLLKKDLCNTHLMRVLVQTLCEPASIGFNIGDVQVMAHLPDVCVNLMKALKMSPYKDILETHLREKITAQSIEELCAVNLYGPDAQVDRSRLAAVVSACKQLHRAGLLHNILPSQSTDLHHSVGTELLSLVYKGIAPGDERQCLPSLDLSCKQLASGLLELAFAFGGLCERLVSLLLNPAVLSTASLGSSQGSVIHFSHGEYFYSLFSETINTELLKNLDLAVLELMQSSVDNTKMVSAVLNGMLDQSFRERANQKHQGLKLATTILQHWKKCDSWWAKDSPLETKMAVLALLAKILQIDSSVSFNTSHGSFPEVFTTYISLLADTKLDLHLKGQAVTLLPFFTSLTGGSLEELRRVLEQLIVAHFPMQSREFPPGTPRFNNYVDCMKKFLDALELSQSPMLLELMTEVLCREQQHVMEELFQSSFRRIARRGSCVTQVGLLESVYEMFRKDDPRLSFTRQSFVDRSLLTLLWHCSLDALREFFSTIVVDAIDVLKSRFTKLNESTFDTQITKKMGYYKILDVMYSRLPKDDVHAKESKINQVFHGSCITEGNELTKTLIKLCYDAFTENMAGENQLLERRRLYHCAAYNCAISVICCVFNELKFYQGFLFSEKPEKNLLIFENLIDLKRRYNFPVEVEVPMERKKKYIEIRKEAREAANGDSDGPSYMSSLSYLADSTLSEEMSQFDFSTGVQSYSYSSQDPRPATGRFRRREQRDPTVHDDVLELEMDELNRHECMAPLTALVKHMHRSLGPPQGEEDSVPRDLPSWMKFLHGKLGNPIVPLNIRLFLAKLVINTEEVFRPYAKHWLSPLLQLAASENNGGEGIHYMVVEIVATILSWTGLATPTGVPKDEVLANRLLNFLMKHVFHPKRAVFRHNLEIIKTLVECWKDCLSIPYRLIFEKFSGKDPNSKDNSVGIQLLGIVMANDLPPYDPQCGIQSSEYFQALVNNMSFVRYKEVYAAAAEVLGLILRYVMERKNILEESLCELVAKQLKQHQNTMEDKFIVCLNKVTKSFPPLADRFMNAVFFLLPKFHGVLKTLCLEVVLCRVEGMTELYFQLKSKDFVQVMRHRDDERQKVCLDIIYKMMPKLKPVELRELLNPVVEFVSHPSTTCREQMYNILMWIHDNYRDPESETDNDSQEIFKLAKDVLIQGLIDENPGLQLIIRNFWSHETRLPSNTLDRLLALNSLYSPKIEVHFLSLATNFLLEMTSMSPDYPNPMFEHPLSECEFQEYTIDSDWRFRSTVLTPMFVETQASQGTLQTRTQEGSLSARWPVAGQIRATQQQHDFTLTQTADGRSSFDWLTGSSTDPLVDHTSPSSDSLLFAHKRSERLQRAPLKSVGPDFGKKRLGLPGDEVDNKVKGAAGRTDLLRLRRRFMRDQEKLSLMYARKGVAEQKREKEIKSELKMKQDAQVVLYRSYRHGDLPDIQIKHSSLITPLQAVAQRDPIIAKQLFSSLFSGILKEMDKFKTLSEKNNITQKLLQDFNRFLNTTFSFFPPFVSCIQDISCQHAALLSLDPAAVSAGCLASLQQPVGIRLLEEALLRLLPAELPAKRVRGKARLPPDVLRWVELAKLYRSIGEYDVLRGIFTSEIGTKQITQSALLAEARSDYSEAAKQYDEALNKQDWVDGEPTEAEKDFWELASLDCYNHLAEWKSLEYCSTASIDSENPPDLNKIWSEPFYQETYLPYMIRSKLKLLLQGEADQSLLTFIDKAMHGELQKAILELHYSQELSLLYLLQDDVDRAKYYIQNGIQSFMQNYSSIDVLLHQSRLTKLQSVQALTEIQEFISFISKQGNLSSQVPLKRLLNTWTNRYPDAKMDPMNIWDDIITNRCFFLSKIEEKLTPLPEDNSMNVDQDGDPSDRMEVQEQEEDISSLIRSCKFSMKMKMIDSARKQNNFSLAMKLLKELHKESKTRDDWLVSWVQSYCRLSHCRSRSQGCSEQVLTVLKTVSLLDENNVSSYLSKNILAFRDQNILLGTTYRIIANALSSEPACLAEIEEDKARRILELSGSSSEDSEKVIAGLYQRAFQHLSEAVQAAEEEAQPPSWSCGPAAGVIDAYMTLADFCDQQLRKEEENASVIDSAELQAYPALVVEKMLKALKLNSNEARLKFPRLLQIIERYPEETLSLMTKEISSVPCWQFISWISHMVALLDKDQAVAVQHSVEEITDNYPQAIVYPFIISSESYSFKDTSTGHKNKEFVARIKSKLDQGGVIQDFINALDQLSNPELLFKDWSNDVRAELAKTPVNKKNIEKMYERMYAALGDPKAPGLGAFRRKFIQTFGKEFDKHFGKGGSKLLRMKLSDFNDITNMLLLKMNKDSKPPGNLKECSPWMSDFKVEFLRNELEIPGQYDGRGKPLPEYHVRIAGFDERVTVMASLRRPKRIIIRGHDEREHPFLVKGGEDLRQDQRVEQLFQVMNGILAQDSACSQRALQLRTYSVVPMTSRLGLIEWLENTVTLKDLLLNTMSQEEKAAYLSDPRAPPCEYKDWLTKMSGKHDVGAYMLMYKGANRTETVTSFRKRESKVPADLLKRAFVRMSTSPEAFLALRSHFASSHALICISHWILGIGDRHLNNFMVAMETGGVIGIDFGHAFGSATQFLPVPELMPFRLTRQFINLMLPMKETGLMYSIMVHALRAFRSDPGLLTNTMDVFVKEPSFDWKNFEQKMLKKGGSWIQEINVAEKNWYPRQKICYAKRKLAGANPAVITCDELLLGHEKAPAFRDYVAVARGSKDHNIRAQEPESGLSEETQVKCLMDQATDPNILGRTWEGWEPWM
UniProt P13010: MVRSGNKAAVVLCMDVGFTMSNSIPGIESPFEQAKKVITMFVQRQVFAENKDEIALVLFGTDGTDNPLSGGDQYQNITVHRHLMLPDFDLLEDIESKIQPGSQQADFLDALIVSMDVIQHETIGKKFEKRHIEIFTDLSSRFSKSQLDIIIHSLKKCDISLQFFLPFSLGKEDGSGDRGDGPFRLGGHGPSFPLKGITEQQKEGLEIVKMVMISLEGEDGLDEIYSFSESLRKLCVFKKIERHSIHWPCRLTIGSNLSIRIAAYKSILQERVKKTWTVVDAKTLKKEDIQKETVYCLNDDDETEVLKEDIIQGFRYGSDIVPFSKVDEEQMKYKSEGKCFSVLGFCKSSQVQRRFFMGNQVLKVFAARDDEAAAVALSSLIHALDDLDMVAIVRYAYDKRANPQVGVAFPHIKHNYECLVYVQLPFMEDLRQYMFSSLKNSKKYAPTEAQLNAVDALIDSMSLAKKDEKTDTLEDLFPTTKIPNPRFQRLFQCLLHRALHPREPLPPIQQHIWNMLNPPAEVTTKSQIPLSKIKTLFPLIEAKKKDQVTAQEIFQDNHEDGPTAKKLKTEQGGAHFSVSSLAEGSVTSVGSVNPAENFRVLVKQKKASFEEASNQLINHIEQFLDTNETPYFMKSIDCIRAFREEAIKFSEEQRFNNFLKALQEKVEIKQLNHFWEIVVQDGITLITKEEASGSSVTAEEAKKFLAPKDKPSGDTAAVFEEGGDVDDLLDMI

Target: Flag-STING-HA (Stimulator of Interferon Genes) (human) (UniProt Q86WV6)
Experiment: affinity purification with mass spectrometry

Substance | binding
SUPT16H (from UniProt Q9Y5B9 1-1047) | binds
RUVBL1 (from UniProt Q9Y265 1-456) | binds
Ku70 (from UniProt P12956 1-609) | binds
DNA-PK catalytic subunit (from UniProt P78527 1-4128) | binds
SMARCA5 (from UniProt O60264 1-1052) | binds
SMC3 (from UniProt Q9UQE7 1-1217) | binds
ACTL6A (from UniProt O96019 1-429) | binds
Ku80 (from UniProt P13010 1-732) | binds
